Test results: the supplement of paper PMC12067093, “Discovery and optimisation of a covalent ligand for TRIM25 and its application to targeted protein ubiquitination” (Chemical Science, 2025)
Some of the results follow.

By UniProt entry, the sequences of proteins in these tests, tags left out. Where a name states a change or a piece, a line headed by the entry shows the natural chain unless it says otherwise.
UniProt Q8TDW0: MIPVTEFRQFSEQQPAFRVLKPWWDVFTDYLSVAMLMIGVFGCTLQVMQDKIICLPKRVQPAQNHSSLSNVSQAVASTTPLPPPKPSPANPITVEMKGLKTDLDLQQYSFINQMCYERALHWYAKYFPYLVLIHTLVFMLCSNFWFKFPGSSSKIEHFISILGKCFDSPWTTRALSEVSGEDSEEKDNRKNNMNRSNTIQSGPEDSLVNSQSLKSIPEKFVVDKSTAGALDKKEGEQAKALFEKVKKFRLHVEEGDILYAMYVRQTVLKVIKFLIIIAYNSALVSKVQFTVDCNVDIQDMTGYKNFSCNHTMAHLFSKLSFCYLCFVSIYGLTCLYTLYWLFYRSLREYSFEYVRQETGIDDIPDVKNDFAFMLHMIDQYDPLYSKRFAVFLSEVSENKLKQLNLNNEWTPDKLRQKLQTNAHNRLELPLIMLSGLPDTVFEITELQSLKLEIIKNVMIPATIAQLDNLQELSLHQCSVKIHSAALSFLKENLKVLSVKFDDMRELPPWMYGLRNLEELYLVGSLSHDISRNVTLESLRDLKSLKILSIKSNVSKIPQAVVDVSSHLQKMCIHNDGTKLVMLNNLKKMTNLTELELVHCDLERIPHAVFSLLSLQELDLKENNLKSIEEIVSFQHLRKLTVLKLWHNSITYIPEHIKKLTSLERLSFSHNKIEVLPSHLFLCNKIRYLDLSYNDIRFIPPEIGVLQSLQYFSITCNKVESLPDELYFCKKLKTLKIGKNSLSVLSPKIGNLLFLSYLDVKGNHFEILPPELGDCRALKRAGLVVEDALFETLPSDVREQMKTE
UniProt P01130: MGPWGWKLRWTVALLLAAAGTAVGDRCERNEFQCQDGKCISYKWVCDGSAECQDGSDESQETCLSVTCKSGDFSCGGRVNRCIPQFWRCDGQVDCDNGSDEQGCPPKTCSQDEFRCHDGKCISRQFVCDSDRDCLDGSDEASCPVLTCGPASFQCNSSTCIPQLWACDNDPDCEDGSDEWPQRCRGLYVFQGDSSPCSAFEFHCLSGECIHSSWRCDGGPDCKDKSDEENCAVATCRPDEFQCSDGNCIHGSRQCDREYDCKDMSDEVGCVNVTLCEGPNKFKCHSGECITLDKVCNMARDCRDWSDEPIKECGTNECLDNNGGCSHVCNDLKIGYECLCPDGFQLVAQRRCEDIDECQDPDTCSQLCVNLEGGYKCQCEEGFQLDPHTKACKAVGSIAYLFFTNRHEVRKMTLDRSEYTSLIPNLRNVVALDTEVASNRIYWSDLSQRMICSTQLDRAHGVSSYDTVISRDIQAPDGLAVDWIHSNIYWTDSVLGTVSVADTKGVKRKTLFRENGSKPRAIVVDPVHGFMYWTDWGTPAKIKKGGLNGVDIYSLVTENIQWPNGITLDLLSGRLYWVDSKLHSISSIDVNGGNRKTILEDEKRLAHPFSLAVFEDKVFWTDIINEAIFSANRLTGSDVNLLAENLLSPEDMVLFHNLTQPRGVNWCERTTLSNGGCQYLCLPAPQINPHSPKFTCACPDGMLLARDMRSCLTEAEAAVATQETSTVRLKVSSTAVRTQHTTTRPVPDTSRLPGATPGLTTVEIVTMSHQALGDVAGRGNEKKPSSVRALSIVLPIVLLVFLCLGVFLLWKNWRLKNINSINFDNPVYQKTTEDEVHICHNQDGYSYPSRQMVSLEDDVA
UniProt Q96II8: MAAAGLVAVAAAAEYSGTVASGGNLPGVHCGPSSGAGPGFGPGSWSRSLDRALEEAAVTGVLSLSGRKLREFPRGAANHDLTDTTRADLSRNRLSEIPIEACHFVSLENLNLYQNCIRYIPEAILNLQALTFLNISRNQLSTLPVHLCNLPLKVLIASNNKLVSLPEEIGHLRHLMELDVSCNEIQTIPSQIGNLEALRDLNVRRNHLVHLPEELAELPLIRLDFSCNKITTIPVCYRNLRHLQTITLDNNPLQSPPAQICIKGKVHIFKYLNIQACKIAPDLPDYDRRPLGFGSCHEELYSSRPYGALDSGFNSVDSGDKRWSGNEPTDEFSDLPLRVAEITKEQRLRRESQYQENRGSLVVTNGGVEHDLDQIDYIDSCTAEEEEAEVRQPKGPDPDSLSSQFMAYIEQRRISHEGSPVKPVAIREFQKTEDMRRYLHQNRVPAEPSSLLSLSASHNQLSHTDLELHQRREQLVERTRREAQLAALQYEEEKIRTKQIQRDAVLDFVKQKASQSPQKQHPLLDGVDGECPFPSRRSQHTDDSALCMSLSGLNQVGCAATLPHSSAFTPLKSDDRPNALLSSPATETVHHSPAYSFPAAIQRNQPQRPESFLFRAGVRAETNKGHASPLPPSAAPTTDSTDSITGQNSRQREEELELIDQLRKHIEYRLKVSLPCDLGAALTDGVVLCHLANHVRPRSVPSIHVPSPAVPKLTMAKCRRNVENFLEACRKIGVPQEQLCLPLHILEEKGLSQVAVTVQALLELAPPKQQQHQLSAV
UniProt Q93052: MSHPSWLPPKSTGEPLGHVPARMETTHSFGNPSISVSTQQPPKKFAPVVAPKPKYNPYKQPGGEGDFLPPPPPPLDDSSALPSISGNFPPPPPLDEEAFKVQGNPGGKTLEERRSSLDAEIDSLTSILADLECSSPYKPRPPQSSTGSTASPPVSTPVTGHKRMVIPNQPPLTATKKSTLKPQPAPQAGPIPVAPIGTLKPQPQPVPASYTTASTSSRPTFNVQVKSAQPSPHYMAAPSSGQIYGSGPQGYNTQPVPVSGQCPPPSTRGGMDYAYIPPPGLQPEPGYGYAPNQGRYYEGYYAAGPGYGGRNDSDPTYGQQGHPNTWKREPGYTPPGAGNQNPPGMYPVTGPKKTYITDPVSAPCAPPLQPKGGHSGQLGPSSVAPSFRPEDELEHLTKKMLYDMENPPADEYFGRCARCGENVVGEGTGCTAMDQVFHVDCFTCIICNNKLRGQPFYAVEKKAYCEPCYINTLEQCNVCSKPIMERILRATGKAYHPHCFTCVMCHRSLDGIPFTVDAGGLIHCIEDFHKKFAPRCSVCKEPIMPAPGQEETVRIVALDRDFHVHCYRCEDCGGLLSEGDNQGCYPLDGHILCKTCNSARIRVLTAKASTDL
UniProt P50851: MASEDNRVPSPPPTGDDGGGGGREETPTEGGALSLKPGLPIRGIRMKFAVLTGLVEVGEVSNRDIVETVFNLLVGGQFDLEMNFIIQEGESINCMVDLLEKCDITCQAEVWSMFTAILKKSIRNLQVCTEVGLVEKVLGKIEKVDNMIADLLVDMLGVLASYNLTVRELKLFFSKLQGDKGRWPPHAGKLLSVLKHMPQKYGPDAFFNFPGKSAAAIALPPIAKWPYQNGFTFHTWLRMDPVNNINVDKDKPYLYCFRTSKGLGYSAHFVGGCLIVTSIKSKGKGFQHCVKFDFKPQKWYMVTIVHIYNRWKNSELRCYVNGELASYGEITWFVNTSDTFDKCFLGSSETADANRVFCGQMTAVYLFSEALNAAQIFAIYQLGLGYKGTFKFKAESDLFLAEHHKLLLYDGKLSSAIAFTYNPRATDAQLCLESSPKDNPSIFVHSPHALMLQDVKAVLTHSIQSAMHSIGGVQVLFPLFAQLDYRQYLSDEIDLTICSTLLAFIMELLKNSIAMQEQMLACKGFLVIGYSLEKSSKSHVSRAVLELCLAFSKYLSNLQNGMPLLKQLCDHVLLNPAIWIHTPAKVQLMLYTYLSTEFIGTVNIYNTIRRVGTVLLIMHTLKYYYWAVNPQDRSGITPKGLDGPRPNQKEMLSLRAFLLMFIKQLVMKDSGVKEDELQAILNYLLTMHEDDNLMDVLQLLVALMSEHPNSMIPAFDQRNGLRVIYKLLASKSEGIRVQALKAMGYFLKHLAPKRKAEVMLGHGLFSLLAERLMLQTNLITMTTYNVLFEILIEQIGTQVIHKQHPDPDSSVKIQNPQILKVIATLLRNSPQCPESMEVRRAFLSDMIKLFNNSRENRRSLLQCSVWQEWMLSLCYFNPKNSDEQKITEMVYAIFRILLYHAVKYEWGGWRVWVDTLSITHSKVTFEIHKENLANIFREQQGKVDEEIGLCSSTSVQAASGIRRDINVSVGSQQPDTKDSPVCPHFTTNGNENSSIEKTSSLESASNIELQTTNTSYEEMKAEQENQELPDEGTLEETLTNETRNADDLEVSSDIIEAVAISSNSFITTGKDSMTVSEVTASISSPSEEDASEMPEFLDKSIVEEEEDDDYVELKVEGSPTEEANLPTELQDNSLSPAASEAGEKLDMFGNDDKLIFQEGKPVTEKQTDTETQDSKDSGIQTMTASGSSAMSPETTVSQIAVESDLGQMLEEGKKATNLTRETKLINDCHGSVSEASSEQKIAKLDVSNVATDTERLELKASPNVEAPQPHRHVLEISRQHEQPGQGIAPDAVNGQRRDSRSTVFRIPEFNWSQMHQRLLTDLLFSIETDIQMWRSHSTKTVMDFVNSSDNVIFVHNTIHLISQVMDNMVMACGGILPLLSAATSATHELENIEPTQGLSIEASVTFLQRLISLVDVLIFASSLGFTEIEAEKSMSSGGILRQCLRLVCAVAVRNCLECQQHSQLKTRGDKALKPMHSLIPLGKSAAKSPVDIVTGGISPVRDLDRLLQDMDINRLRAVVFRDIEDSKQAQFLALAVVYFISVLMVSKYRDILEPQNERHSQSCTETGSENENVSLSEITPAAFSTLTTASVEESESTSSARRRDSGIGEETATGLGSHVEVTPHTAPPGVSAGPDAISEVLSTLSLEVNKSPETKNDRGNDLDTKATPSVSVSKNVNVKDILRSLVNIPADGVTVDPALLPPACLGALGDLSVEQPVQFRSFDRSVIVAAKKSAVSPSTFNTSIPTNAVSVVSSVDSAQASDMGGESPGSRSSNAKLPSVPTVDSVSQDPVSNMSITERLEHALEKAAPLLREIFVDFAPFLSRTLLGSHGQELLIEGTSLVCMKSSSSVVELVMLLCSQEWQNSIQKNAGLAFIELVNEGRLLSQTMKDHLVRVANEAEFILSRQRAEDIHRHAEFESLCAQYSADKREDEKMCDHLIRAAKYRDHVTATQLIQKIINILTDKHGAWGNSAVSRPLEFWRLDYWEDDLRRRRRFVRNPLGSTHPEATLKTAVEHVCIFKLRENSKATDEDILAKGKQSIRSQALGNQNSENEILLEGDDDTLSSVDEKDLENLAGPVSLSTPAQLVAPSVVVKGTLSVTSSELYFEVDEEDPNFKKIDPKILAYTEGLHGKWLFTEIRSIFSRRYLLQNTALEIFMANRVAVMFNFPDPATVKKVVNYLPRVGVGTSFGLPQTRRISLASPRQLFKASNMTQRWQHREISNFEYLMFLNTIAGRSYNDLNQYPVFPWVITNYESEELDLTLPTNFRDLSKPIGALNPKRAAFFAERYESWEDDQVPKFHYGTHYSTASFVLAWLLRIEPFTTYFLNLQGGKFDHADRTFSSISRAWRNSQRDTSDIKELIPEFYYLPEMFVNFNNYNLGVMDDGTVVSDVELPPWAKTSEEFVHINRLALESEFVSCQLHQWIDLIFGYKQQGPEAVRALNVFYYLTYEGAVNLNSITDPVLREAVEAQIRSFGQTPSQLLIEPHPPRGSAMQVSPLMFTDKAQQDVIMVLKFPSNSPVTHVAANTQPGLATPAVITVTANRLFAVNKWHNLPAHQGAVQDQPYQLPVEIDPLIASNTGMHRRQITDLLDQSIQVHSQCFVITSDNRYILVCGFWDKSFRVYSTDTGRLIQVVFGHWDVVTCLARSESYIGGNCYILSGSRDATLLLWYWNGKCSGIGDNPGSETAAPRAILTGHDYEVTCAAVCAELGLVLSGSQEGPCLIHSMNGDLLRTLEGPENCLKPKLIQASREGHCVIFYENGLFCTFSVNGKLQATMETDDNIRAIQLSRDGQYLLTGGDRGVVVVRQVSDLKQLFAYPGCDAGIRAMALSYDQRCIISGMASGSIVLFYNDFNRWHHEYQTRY
UniProt Q9H089: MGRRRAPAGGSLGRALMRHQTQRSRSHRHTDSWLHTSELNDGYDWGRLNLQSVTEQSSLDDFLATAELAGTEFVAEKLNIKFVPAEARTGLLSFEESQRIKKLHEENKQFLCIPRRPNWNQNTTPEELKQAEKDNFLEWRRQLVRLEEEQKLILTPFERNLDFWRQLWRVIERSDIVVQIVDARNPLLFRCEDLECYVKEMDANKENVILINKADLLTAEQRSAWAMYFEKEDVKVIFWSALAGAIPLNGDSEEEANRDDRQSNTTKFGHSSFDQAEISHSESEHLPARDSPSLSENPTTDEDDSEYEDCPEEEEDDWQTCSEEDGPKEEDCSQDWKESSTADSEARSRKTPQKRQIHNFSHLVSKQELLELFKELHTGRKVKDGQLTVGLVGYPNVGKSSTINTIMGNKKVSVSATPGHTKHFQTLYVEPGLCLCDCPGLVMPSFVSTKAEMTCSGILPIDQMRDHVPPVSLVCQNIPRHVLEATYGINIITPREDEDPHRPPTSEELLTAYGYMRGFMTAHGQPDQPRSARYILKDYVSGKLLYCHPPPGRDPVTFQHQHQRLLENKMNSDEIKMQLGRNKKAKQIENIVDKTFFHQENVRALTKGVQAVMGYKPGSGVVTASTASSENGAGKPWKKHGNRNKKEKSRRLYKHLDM

compound: CC1Cc2ccccc2N1C(=O)C1CCCN(C1)C(=O)CCl (mixture of isomers) [TRIM25 ligand 11 (diastereomer mixture)]; experiment: probe-labelled cysteine peptide fold change vs DMSO (competition) (log2 fold change); higher = less target engagement (more negative = stronger competition); conditions: 10 µM; THP-1; incubation time: 4 h
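Further: competitive chemoproteomic profiling in live THP-1 cells with an iodoacetamide desthiobiotin (IA-DTB) probe, comparing probe-labelled peptide intensities in compound-treated cells against DMSO-treated controls.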

Row | Target | probe-labelled cysteine peptide fold change
1 | LRRC8C_Q8TDW0_599_MTNLTELELVHCDLER (UniProt Q8TDW0) | 0.076
2 | LENG8_Q96PV6_600_EKQDYAFACEQMK (UniProt Q96PV6) | -0.127
3 | LIMA1_Q9UHB6_393_ETCVECQK (UniProt Q9UHB6) | 0.109
4 | LRRC41_Q15345_297_CAAALMASR (UniProt Q15345) | -0.0623
5 | LDLR_P01130_377+379_CQCEEGFQLDPHTK (UniProt P01130) | 0.0826
6 | LRRC8A_Q8IWT6_768+776_GNRLECLPVELGECPLLK (UniProt Q8IWT6) | -0.15
7 | LGALS1_P09382_61_FNAHGDANTIVCNSK (UniProt P09382) | 0.00552
8 | LRCH1_Q9Y2L9_421_AEDCEELLR (UniProt Q9Y2L9) | -0.00975
9 | LMNB2_Q03252_212_CQSLQEELDFR (UniProt Q03252) | 0.21
10 | LRRC8C_Q8TDW0_682_IEVLPSHLFLCNK (UniProt Q8TDW0) | 0.251
11 | LRPPRC_P42704_113_VFNDTCR (UniProt P42704) | -0.0606
12 | LGALS3_P17931_173_VIVCNTK (UniProt P17931) | 0.033
13 | LRRC40_Q9H9A6_264_FLPEFPSCSLLK (UniProt Q9H9A6) | 0.0423
14 | LRRC14_Q15048_71_ELVHTWPFPLLSFQQLLQECAHCSR (UniProt Q15048) | -0.141
15 | LIMK1_P53667_84_YGESCHGCSEQITK (UniProt P53667) | 0.29
16 | LRCH3_Q96II8_689_VSLPCDLGAALTDGVVLCHLANHVRPR (UniProt Q96II8) | -0.0635
17 | LRPPRC_P42704_722_AKYESDMVTGGYAALINLCCR (UniProt P42704) | -0.101
18 | LPP_Q93052_499+502_AYHPHCFTCVMCHR (UniProt Q93052) | 0.0338

Row | Target | probe-labelled cysteine peptide fold change
19 | LMAN1_P49257_230_NDYEFCAK (UniProt P49257) | 0.433
20 | LRCH3_Q96II8_102_LSEIPIEACHFVSLENLNLYQNCIR (UniProt Q96II8) | -0.197
21 | LRRC58_Q96CX6_119_GLAQSPLCR (UniProt Q96CX6) | -0.112
22 | LRRFIP1_Q32MZ4_14_EIDCLSPEAQK (UniProt Q32MZ4) | -0.154
23 | LPCAT2_Q7L5N7_326_NLMAEALGIPVTDHTYEDCR (UniProt Q7L5N7) | 0.176
24 | LMO7_Q8WWI1_228_DSGYGDIWCPER (UniProt Q8WWI1) | -0.0808
25 | LIMS1_P48059_193+196_MGVPICGACR (UniProt P48059) | -0.089
26 | LILRB4_Q8NHJ6_144_SVTLLCQSR (UniProt Q8NHJ6) | 0.0853
27 | LRPPRC_P42704_1043_DILIACR (UniProt P42704) | -0.000295
28 | LRBA_P50851_2740_TLEGPENCLKPK (UniProt P50851) | 0.0603
29 | LPP_Q93052_524_SLDGIPFTVDAGGLIHCIEDFHK (UniProt Q93052) | 0.00908
30 | LIG4_P49917_510_VGSGCTMK (UniProt P49917) | -0.0615
31 | LEMD2_Q8NC56_355_VVCLESAHPR (UniProt Q8NC56) | 0.00883
32 | LGALS9_O00182_102_GMPFDLCFLVQSSDFK (UniProt O00182) | -0.159
33 | LRRC47_Q8N1G4_224_TLDLSNNQLSEIPAELADCPK (UniProt Q8N1G4) | 0.184
34 | LPXN_O60711_340_CISAMGYK (UniProt O60711) | -0.125
35 | LIG1_P18858_895_QPEQATTSAQVACLYR (UniProt P18858) | -0.0444
36 | LSG1_Q9H089_547_LLYCHPPPGRDPVTFQHQHQR (UniProt Q9H089) | -0.272

Given as tab-separated lines: part of the list above.
Row	Target	probe-labelled cysteine peptide fold change
5	LDLR_P01130_377+379_CQCEEGFQLDPHTK (UniProt P01130)	0.0826
28	LRBA_P50851_2740_TLEGPENCLKPK (UniProt P50851)	0.0603
